Data as given in the odorant receptor screen of Mainland et al. (2015).
“And” between values parts separate entries of the source, which are not always exact repeats. Equal entries are not always repeated. The list shows a part of the results. Single wells; the ratio to wells without odorant was worked out here, and repeats agree poorly.

Key:
Assay in all cases: odorant receptor activation (CRE luciferase / Renilla) (fold of no-odor wells); higher = more activation
Details in all cases: 100 µM
OR5M1 S282T clone 1208 = test system: OR5M1 S282T clone 1208
OR5M10 V69L clone 1125 = test system: OR5M10 V69L clone 1125
OR5M11 clone 1236 = test system: OR5M11 clone 1236
OR5M8 clone 1523 = test system: OR5M8 clone 1523
OR5M9 clone 1194 = test system: OR5M9 clone 1194
OR5P2 clone 1185 = test system: OR5P2 clone 1185
OR5P3 clone 1115 = test system: OR5P3 clone 1115
OR5R1 clone 1162 = test system: OR5R1 clone 1162
OR5T1 clone 1249 = test system: OR5T1 clone 1249
OR5T1 clone 1399 = test system: OR5T1 clone 1399

For `CCCCO` [1-butanol], which odorant receptor activation (OR5M1 S282T clone 1208) is on record?
Its odorant receptor activation is 0.862.

And the odorant receptor activation (OR5M10 V69L clone 1125)?
The odorant receptor activation was 0.87.

What about the odorant receptor activation (OR5M11 clone 1236) of the same compound?
The odorant receptor activation was 0.931.

What about the odorant receptor activation (OR5M8 clone 1523) of the same compound?
Its odorant receptor activation is 1.25.

And the odorant receptor activation (OR5M9 clone 1194)?
Its odorant receptor activation is 1.08.

And the odorant receptor activation (OR5P2 clone 1185)?
Its odorant receptor activation is 0.791.

And the odorant receptor activation (OR5P3 clone 1115)?
The odorant receptor activation was 5.38.

And the odorant receptor activation (OR5R1 clone 1162)?
Its odorant receptor activation is 1.02.

What about the odorant receptor activation (OR5T1 clone 1249) of the same compound?
Its odorant receptor activation is 1.17.

What about the odorant receptor activation (OR5T1 clone 1399) of the same compound?
Its odorant receptor activation is 0.948.

Which results are given for `CC(C)CCC(=O)O` [4-methylvaleric acid]?
odorant receptor activation (OR5M1 S282T clone 1208): 1.05; odorant receptor activation (OR5M10 V69L clone 1125): 0.893; odorant receptor activation (OR5M11 clone 1236): 0.77; odorant receptor activation (OR5M8 clone 1523): 0.835; odorant receptor activation (OR5M9 clone 1194): 0.847; odorant receptor activation (OR5P2 clone 1185): 0.816; odorant receptor activation (OR5P3 clone 1115): 2.69; odorant receptor activation (OR5R1 clone 1162): 1.06; odorant receptor activation (OR5T1 clone 1249): 1.19; odorant receptor activation (OR5T1 clone 1399): 1.54

`C=C(C)C1CC=C(C)C(=O)C1` (stereo unspecified) [r-carvone] was tested. Which odorant receptor activation (OR5M1 S282T clone 1208) did it give?
The odorant receptor activation was 0.929.

What about the odorant receptor activation (OR5M10 V69L clone 1125) of the same compound?
Its odorant receptor activation is 1.18.

And the odorant receptor activation (OR5M11 clone 1236)?
Its odorant receptor activation is 0.789.

And the odorant receptor activation (OR5M8 clone 1523)?
The odorant receptor activation was 1.01.

What about the odorant receptor activation (OR5M9 clone 1194) of the same compound?
Its odorant receptor activation is 0.856.

And the odorant receptor activation (OR5P2 clone 1185)?
The odorant receptor activation was 1.1.

What about the odorant receptor activation (OR5P3 clone 1115) of the same compound?
Its odorant receptor activation is 4.38.

And the odorant receptor activation (OR5R1 clone 1162)?
The odorant receptor activation was 0.868.

And the odorant receptor activation (OR5T1 clone 1249)?
The odorant receptor activation was 0.711.

And the odorant receptor activation (OR5T1 clone 1399)?
The odorant receptor activation was 1.25.

Which results are given for `O=CCc1ccccc1` [phenyl acetaldehyde]?
odorant receptor activation (OR5M1 S282T clone 1208): 0.846; odorant receptor activation (OR5M10 V69L clone 1125): 1.34; odorant receptor activation (OR5M11 clone 1236): 1.91; odorant receptor activation (OR5M8 clone 1523): 0.834; odorant receptor activation (OR5M9 clone 1194): 0.834; odorant receptor activation (OR5P2 clone 1185): 1.47; odorant receptor activation (OR5P3 clone 1115): 1.01; odorant receptor activation (OR5R1 clone 1162): 0.964; odorant receptor activation (OR5T1 clone 1249): 1.12; odorant receptor activation (OR5T1 clone 1399): 1.6

For `C=CCSCC=C` [diallyl sulfide], which odorant receptor activation (OR5M1 S282T clone 1208) is on record?
The odorant receptor activation was 1.03.

And the odorant receptor activation (OR5M10 V69L clone 1125)?
Its odorant receptor activation is 1.08.

What about the odorant receptor activation (OR5M11 clone 1236) of the same compound?
The odorant receptor activation was 0.705.

And the odorant receptor activation (OR5M8 clone 1523)?
Its odorant receptor activation is 1.27.

And the odorant receptor activation (OR5M9 clone 1194)?
Its odorant receptor activation is 0.891.

And the odorant receptor activation (OR5P2 clone 1185)?
The odorant receptor activation was 1.41.

And the odorant receptor activation (OR5P3 clone 1115)?
The odorant receptor activation was 1.07.

And the odorant receptor activation (OR5R1 clone 1162)?
The odorant receptor activation was 1.26.

What about the odorant receptor activation (OR5T1 clone 1249) of the same compound?
The odorant receptor activation was 0.971.

What about the odorant receptor activation (OR5T1 clone 1399) of the same compound?
Its odorant receptor activation is 0.932.

Which odorant receptor activation (OR5M1 S282T clone 1208) does the source give for `CC(C)C(=O)O` [isobutyric acid] here?
Its odorant receptor activation is 1.11.

What about the odorant receptor activation (OR5M10 V69L clone 1125) of the same compound?
Its odorant receptor activation is 0.574.

And the odorant receptor activation (OR5M11 clone 1236)?
Its odorant receptor activation is 1.02.

And the odorant receptor activation (OR5M8 clone 1523)?
Its odorant receptor activation is 0.818 and 0.813.

And the odorant receptor activation (OR5M9 clone 1194)?
The odorant receptor activation was 1.03.

What about the odorant receptor activation (OR5P2 clone 1185) of the same compound?
Its odorant receptor activation is 0.913.

What about the odorant receptor activation (OR5P3 clone 1115) of the same compound?
The odorant receptor activation was 0.704.

What about the odorant receptor activation (OR5R1 clone 1162) of the same compound?
Its odorant receptor activation is 1.08.

What about the odorant receptor activation (OR5T1 clone 1249) of the same compound?
The odorant receptor activation was 1.01 and 1.3.

What about the odorant receptor activation (OR5T1 clone 1399) of the same compound?
Its odorant receptor activation is 0.797.

`CCCCCCC=O` [heptaldehyde] was tested. Which odorant receptor activation (OR5M10 V69L clone 1125) did it give?
The odorant receptor activation was 1.46.

What about the odorant receptor activation (OR5M11 clone 1236) of the same compound?
Its odorant receptor activation is 1.34.

What about the odorant receptor activation (OR5P3 clone 1115) of the same compound?
Its odorant receptor activation is 1.33 and 0.605.

What about the odorant receptor activation (OR5T1 clone 1249) of the same compound?
Its odorant receptor activation is 0.93 and 1.04 and 1.46.

What about the odorant receptor activation (OR5T1 clone 1399) of the same compound?
Its odorant receptor activation is 0.915 and 0.696.

Which results are given for `CCCCCC(C)=O` [2-heptanone]?
odorant receptor activation (OR5M1 S282T clone 1208): 1.03; odorant receptor activation (OR5M8 clone 1523): 0.563 and 0.704; odorant receptor activation (OR5M9 clone 1194): 0.79; odorant receptor activation (OR5P2 clone 1185): 0.738; odorant receptor activation (OR5P3 clone 1115): 0.874; odorant receptor activation (OR5R1 clone 1162): 1.24; odorant receptor activation (OR5T1 clone 1249): 1.05; odorant receptor activation (OR5T1 clone 1399): 0.891

`CCCCCCCCOC(C)=O` [octyl acetate] was tested. Which odorant receptor activation (OR5M1 S282T clone 1208) did it give?
Its odorant receptor activation is 1.02.

What about the odorant receptor activation (OR5M10 V69L clone 1125) of the same compound?
Its odorant receptor activation is 1.09.

What about the odorant receptor activation (OR5M11 clone 1236) of the same compound?
The odorant receptor activation was 0.754.

What about the odorant receptor activation (OR5M8 clone 1523) of the same compound?
Its odorant receptor activation is 0.808.

And the odorant receptor activation (OR5M9 clone 1194)?
The odorant receptor activation was 0.858.

And the odorant receptor activation (OR5P2 clone 1185)?
The odorant receptor activation was 1.28.

And the odorant receptor activation (OR5P3 clone 1115)?
The odorant receptor activation was 1.33.

And the odorant receptor activation (OR5R1 clone 1162)?
Its odorant receptor activation is 1.08.

What about the odorant receptor activation (OR5T1 clone 1249) of the same compound?
The odorant receptor activation was 1.14.

And the odorant receptor activation (OR5T1 clone 1399)?
Its odorant receptor activation is 0.845.

Which results are given for `COC(=O)c1ccccc1` [methyl benzoate]?
odorant receptor activation (OR5M1 S282T clone 1208): 0.704; odorant receptor activation (OR5M8 clone 1523): 0.753 and 1.14; odorant receptor activation (OR5M9 clone 1194): 0.837; odorant receptor activation (OR5P2 clone 1185): 0.408; odorant receptor activation (OR5P3 clone 1115): 4.71; odorant receptor activation (OR5R1 clone 1162): 0.743; odorant receptor activation (OR5T1 clone 1249): 0.253; odorant receptor activation (OR5T1 clone 1399): 0.804

For `O=C1CCCCC1` [Cyclohexanone], which odorant receptor activation (OR5M1 S282T clone 1208) is on record?
The odorant receptor activation was 0.614.

What about the odorant receptor activation (OR5M8 clone 1523) of the same compound?
Its odorant receptor activation is 0.733 and 1.01.

And the odorant receptor activation (OR5M9 clone 1194)?
The odorant receptor activation was 0.675.

And the odorant receptor activation (OR5P2 clone 1185)?
The odorant receptor activation was 0.688.

What about the odorant receptor activation (OR5P3 clone 1115) of the same compound?
The odorant receptor activation was 1.2.

And the odorant receptor activation (OR5R1 clone 1162)?
Its odorant receptor activation is 0.681.

What about the odorant receptor activation (OR5T1 clone 1249) of the same compound?
The odorant receptor activation was 0.164.

What about the odorant receptor activation (OR5T1 clone 1399) of the same compound?
The odorant receptor activation was 0.724.

`CC/C=C\CCO` [cis-3-hexen-1-ol] was tested. Which odorant receptor activation (OR5M1 S282T clone 1208) did it give?
Its odorant receptor activation is 1.04.

And the odorant receptor activation (OR5M10 V69L clone 1125)?
Its odorant receptor activation is 0.923.

What about the odorant receptor activation (OR5M11 clone 1236) of the same compound?
The odorant receptor activation was 1.11.

And the odorant receptor activation (OR5M8 clone 1523)?
Its odorant receptor activation is 0.963.

And the odorant receptor activation (OR5M9 clone 1194)?
The odorant receptor activation was 1.07.

And the odorant receptor activation (OR5P2 clone 1185)?
The odorant receptor activation was 1.18.

And the odorant receptor activation (OR5P3 clone 1115)?
Its odorant receptor activation is 1.3.

What about the odorant receptor activation (OR5R1 clone 1162) of the same compound?
The odorant receptor activation was 1.04.

And the odorant receptor activation (OR5T1 clone 1249)?
Its odorant receptor activation is 1.16.

What about the odorant receptor activation (OR5T1 clone 1399) of the same compound?
Its odorant receptor activation is 0.205.

With `C=CC(C)(O)CCC=C(C)C` (stereo unspecified) [linalool] as the compound, how does the odorant receptor activation (OR5M1 S282T clone 1208) read?
The odorant receptor activation was 0.867.

And the odorant receptor activation (OR5M10 V69L clone 1125)?
The odorant receptor activation was 1.05.

And the odorant receptor activation (OR5M11 clone 1236)?
Its odorant receptor activation is 0.983.

And the odorant receptor activation (OR5M8 clone 1523)?
The odorant receptor activation was 1.11.

What about the odorant receptor activation (OR5M9 clone 1194) of the same compound?
The odorant receptor activation was 1.18.

What about the odorant receptor activation (OR5P2 clone 1185) of the same compound?
The odorant receptor activation was 0.962.

What about the odorant receptor activation (OR5P3 clone 1115) of the same compound?
The odorant receptor activation was 1.36.

What about the odorant receptor activation (OR5R1 clone 1162) of the same compound?
Its odorant receptor activation is 0.917.

What about the odorant receptor activation (OR5T1 clone 1249) of the same compound?
Its odorant receptor activation is 1.1.

What about the odorant receptor activation (OR5T1 clone 1399) of the same compound?
The odorant receptor activation was 0.788.

With `C=C(C)C1CCC2=CC(=O)CC(C)C2(C)C1` (stereo unspecified) [amyl laurate] as the compound, how does the odorant receptor activation (OR5M10 V69L clone 1125) read?
Its odorant receptor activation is 2.15.

What about the odorant receptor activation (OR5M11 clone 1236) of the same compound?
Its odorant receptor activation is 0.887.

For `CCCCCCCCCCC=O` [undecanal], which odorant receptor activation (OR5M1 S282T clone 1208) is on record?
Its odorant receptor activation is 0.728.

What about the odorant receptor activation (OR5M10 V69L clone 1125) of the same compound?
Its odorant receptor activation is 0.826.

And the odorant receptor activation (OR5M11 clone 1236)?
The odorant receptor activation was 0.89.

What about the odorant receptor activation (OR5M8 clone 1523) of the same compound?
Its odorant receptor activation is 1.03.

What about the odorant receptor activation (OR5M9 clone 1194) of the same compound?
Its odorant receptor activation is 1.15.

And the odorant receptor activation (OR5P2 clone 1185)?
The odorant receptor activation was 1.15.

And the odorant receptor activation (OR5P3 clone 1115)?
Its odorant receptor activation is 0.858.

And the odorant receptor activation (OR5R1 clone 1162)?
Its odorant receptor activation is 0.672.

And the odorant receptor activation (OR5T1 clone 1249)?
The odorant receptor activation was 0.991.

And the odorant receptor activation (OR5T1 clone 1399)?
Its odorant receptor activation is 1.19.
